From patent US20060241082A1, “Modulating vesicular monoamine transporter trafficking and function: a novel approach for the treatment of parkinson's disease” (priority 2002, published 2006)
Where “and” joins values, the source holds several entries; their conditions need not be identical. Identical values can stand only once. Counter-ions that a name gives are not always drawn.

Experiment: Core (rectal) body temperature of treated rats
Type: in vivo, rat

With CN[C@@H](C)Cc1ccccc1 (racemic) [METH, methamphetamine] the “core body temperature in METH-treated rats exposed to the cool environment” value (METH 15 mg/kg s.c., 6° C. ambient) was 38.1±0.1 °C and the “core body temperature after METH” value (rats, METH 15 mg/kg s.c., 24° C. ambient) was 40.1±0.1 °C and 40.5±0.1 °C.

With CCc1cc(Cl)c(OC)c(C(=O)NC[C@@H]2CCCN2CC)c1O [eticlopride, (−)-Eticlopride hydrochloride] the “body temperature in eticlopride-pretreated METH-treated rats exposed to warmer ambient temperature” value (28.5° C. ambient) was 39.8±0.1 DC and the “core body temperature in METH-treated rats pretreated with eticlopride” value (eticlopride 0.5 mg/kg i.p. 15 min prior to METH 15 mg/kg s.c., 24° C. ambient) was 38.4±0.1 °C.

In the case of COC(=O)C(c1ccccc1)C1CCCCN1 (centres unmarked) [MPD, methylphenidate], the “effect of MPD on the hyperthermia induced acutely by METH” value (rats, MPD 5 mg/kg s.c., METH 4 x 7.5 mg/kg s.c.) is reported as “nor did it prevent”.
